Patent US11897925B2, “Treatment of homologous recombination deficient cancers” (Sinai Health System, priority 2020, dated 2024)
At least one structure is not confirmed: it was looked up by name or label, or the drawing left a doubt.

Test system: DLD1 parental, CIP2A−/− and BRCA2−/− cell lines
Test: Growth inhibition by reported CIP2A inhibitors
Assay type: cell-based, human
Details: CIP2A−/− and BRCA2−/− compared

SMILES: CC1=C(O)C(=O)C=C2C1=CC=C1[C@@]2(C)CC[C@@]2(C)[C@@H]3C[C@](C)(C(=O)O)CC[C@]3(C)CC[C@]12C [celastrol]
- growth inhibitory properties: inhibit growth of all cell lines, to the same extent, irrespective of genotype
